Assay results from paper PMC12463105, “NSP7 Molecular Degrader Attenuates Coronaviral Infection Through the β‐TrCP1/FBXO5 Axis” (Advanced Science, 2025).
These are yes or no findings as the source states them, for the method shown. In cells and extracts the contact can be indirect. Some binding calls cover weakened binding; strength is not graded here. Sequences can lack the tags named with a protein.

Chains of the proteins cited; added tags and fusions are not shown.
UniProt Q9Y297: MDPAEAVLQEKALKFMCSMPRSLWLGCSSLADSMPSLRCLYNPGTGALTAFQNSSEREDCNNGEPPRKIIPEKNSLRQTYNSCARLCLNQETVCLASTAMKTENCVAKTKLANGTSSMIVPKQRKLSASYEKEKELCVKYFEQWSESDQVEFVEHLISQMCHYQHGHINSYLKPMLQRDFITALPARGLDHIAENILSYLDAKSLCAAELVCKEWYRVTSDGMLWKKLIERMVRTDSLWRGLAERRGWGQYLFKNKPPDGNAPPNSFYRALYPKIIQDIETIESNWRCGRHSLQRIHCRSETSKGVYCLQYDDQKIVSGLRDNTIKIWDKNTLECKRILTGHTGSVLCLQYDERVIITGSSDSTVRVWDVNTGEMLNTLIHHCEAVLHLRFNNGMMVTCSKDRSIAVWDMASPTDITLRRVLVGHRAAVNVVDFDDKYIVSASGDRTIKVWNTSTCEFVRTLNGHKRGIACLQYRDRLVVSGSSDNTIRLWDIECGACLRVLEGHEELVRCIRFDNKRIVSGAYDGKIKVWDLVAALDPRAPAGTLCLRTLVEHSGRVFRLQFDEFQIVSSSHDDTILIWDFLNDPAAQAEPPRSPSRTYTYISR

Target: T1, HA‐FBXO5 (UniProt Q9UKT4)
T1 sequence: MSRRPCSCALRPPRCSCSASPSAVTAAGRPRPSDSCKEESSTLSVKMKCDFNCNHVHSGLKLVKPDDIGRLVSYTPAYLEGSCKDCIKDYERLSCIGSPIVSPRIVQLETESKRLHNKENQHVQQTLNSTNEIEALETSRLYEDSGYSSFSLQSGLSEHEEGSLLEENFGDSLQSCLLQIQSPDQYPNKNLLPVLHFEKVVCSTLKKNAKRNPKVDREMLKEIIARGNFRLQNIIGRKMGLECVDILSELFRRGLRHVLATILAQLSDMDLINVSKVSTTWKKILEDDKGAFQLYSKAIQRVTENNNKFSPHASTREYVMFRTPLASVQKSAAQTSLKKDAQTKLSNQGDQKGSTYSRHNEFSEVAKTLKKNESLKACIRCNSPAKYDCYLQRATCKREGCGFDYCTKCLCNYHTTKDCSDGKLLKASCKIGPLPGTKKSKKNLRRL
Assay: pull-down; HA‐FBXO5 pulled down from transfected BEAS‐2B lysate with HA‐tag magnetic beads, IP lysis buffer, 4 °C, 16 h; immunoblotting; also with the TAF1 inhibitor BAY‐299 or with BC24877 for 24 h

**Q.** For β‐TrCP1 (from UniProt Q9Y297 1-605), which binding is on record?
**A.** binds
